# Test results from patent publication US20110300148A1.
# Columns and labels:
# [1] = molecular target: Recombinant IL4Rα (Homo sapiens (Human)); assay: SPR (Biacore); by the legend, Ph3 on the chip and IL4rα in solution; KD calculated but not given
# [2] = molecular target: Recombinant IL4Rα (Homo sapiens (Human)); assay: SPR (Biacore); by the legend, Ph2 on the chip and IL4rα in solution; KD calculated but not given
binding [1],binding [2],Binder
binds,,AQFHRHKQLIRFLKRA [Ph3 (SEQ ID NO:1)]
,binds,ARFLKRLDRNLWGG [Ph2 (SEQ ID NO:3)]

# Results are given in words; binding and its absence hold for the method and conditions named. A result given as binding can be weak or reduced; the word gives no strength.
